Consider eight molecules from paper PMC5513536.

Chains of the proteins cited; added tags and fusions are not shown.
UniProt F5HID2: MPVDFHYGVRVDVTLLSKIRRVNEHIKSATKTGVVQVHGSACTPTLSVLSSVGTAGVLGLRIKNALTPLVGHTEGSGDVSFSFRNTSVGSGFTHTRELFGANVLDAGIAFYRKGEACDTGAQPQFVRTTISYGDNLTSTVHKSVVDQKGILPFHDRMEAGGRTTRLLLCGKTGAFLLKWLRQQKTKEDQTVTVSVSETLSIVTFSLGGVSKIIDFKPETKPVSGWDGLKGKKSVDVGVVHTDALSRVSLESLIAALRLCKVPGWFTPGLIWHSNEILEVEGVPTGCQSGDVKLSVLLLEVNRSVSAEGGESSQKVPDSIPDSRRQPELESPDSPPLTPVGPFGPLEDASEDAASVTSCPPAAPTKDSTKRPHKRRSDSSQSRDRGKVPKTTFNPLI

No constants are given. Whether binding was seen depends on the method and setting. In cells and extracts the contact can be indirect. Here binding means that the protein was enriched with, or labelled near, the bait; the list need not be complete.

In the assay the target is Flag-epitope tagged ORF59 (BAC16-ORF59Flag) (KSHV (human herpesvirus 8)) (UniProt F5HID2). Kind of assay: affinity purification with mass spectrometry.

B1: EF-hand domain-containing protein D2 (protein, UniProt Q96C19 1-240)
chain: MATDELATKLSRRLQMEGEGGGETPEQPGLNGAAAAAAGAPDEAAEALGSADCELSAKLLRRADLNQGIGEPQSPSRRVFNPYTEFKEFSRKQIKDMEKMFKQYDAGRDGFIDLMELKLMMEKLGAPQTHLGLKNMIKEVDEDFDSKLSFREFLLIFRKAAAGELQEDSGLCVLARLSEIDVSSEGVKGAKSFFEAKVQAINVSSRFEEEIKAEQEERKKQAEEMKQRKAAFKELQSTFK
Turning to B1, the binding result is reported as “binds”.

B2: Nucleolar protein 58 (protein, UniProt Q9Y2X3 1-529)
chain: MLVLFETSVGYAIFKVLNEKKLQEVDSLWKEFETPEKANKIVKLKHFEKFQDTAEALAAFTALMEGKINKQLKKVLKKIVKEAHEPLAVADAKLGGVIKEKLNLSCIHSPVVNELMRGIRSQMDGLIPGVEPREMAAMCLGLAHSLSRYRLKFSADKVDTMIVQAISLLDDLDKELNNYIMRCREWYGWHFPELGKIISDNLTYCKCLQKVGDRKNYASAKLSELLPEEVEAEVKAAAEISMGTEVSEEDICNILHLCTQVIEISEYRTQLYEYLQNRMMAIAPNVTVMVGELVGARLIAHAGSLLNLAKHAASTVQILGAEKALFRALKSRRDTPKYGLIYHASLVGQTSPKHKGKISRMLAAKTVLAIRYDAFGEDSSSAMGVENRAKLEARLRTLEDRGIRKISGTGKALAKTEKYEHKSEVKTYDPSGDSTLPTCSKKRKIEQVDKEDEITEKKAKKAKIKVKVEEEEEEKVAEEEETSVKKKKKRGKKKHIKEEPLSEEEPCTSTAIASPEKKKKKKKKRENED
Turning to B2, the binding result is given as “binds”.

B3: Isoform 4 of Heat shock protein 105kDA (protein, UniProt Q92598-4 1-860)
chain: MATAAVLRGPAAHWVESFQKAREEGSGSGTWRGRWRRRSVISFGSKNRTIGVAAKNQQITHANNTVSNFKRFHGRAFNDPFIQKEKENLSYDLVPLKNGGVGIKVMYMGEEHLFSVEQITAMLLTKLKETAENSLKKPVTDCVISVPSFFTDAERRSVLDAAQIVGLNCLRLMNDMTAVALNYGIYKQDLPSLDEKPRIVVFVDMGHSAFQVSACAFNKGKLKVLGTAFDPFLGGKNFDEKLVEHFCAEFKTKYKLDAKSKIRALLRLYQECEKLKKLMSSNSTDLPLNIECFMNDKDVSGKMNRSQFEELCAELLQKIEVPLYSLLEQTHLKVEDVSAVEIVGGATRIPAVKERIAKFFGKDISTTLNADEAVARGCALQCAILSPAFKVREFSVTDAVPFPISLIWNHDSEDTEGVHEVFSRNHAAPFSKVLTFLRRGPFELEAFYSDPQGVPYPEAKIGRFVVQNVSAQKDGEKSRVKVKVRVNTHGIFTISTASMVEKVPTEENEMSSEADMECLNQRPPENPDTDKNVQQDNSEAGTQPQVQTDAQQTSQSPPSPELTSEENKIPDADKANEKKVDQPPEAKKPKIKVVNVELPIEANLVWQLGKDLLNMYIETEGKMIMQDKLEKERNDAKNAVEEYVYEFRDKLCGPYEKFICEQDHQNFLRLLTETEDWLYEEGEDQAKQAYVDKLEELMKIGTPVKVRFQEAEERPKMFEELGQRLQHYAKIAADFRNKDEKYNHIDESEMKKVEKSVNEVMEWMNNVMNAQAKKSLDQDPVVRAQEIKTKIKELNNTCEPVVTQPKPKIESPKLERTPNGPNIDKKEEDLEDKNNFGAEPPHQNGECYPNEKNSVNMDLD
As for B3, the binding entry is “binds”.

B4: Isoform 1A of Catenin delta-1 (protein, UniProt O60716-5 1-933)
chain: MDDSEVESTASILASVKEQEAQFEKLTRALEEERRHVSAQLERVRVSPQDANPLMANGTLTRRHQNGRFVGDADLERQKFSDLKLNGPQDHSHLLYSTIPRMQEPGQIVETYTEEDPEGAMSVVSVETSDDGTTRRTETTVKKVVKTVTTRTVQPVAMGPDGLPVDASSVSNNYIQTLGRDFRKNGNGGPGPYVGQAGTATLPRNFHYPPDGYSRHYEDGYPGGSDNYGSLSRVTRIEERYRPSMEGYRAPSRQDVYGPQPQVRVGGSSVDLHRFHPEPYGLEDDQRSMGYDDLDYGMMSDYGTARRTGTPSDPRRRLRSYEDMIGEEVPSDQYYWAPLAQHERGSLASLDSLRKGGPPPPNWRQPELPEVIAMLGFRLDAVKSNAAAYLQHLCYRNDKVKTDVRKLKGIPVLVGLLDHPKKEVHLGACGALKNISFGRDQDNKIAIKNCDGVPALVRLLRKARDMDLTEVITGTLWNLSSHDSIKMEIVDHALHALTDEVIIPHSGWEREPNEDCKPRHIEWESVLTNTAGCLRNVSSERSEARRKLRECDGLVDALIFIVQAEIGQKDSDSKLVENCVCLLRNLSYQVHREIPQAERYQEAAPNVANNTGPHAASCFGAKKGKGKKPIEDPANDTVDFPKRTSPARGYELLFQPEVVRIYISLLKESKTPAILEASAGAIQNLCAGRWTYGRYIRSALRQEKALSAIADLLTNEHERVVKAASGALRNLAVDARNKELIGKHAIPNLVKNLPGGQQNSSWNFSEDTVISILNTINEVIAENLEAAKKLRETQGIEKLVLINKSGNRSEKEVRAAALVLQTIWGYKELRKPLEKEGWKKSDFQVNLNNASRSQSSHSYDDSTLPLIDRNQKSDKKPDREEIQMSNMGSNTKSLDNNYSTPNERGDHNRTLDRSGDLGDMEPLKGTTPLMQKI
As to B4, the binding entry is “binds”.

B5: Uveal autoantigen with coiled-coil domains and ankyrin repeats (protein, UniProt Q9BZF9 1-1416)
chain: MKSLKSRLRRQDVPGPASSGAAAASAHAADWNKYDDRLMKAAERGDVEKVTSILAKKGVNPGKLDVEGRSVFHVVTSKGNLECLNAILIHGVDITTSDTAGRNALHLAAKYGHALCLQKLLQYNCPTEHADLQGRTALHDAAMADCPSSIQLLCDHGASVNAKDVDGRTPLVLATQMSRPTICQLLIDRGADVNSRDKQNRTALMLGCEYGCRDAVEVLIKNGADISLLDALGHDSSYYARIGDNLDILTLLKTASENTNKGRELWKKGPSLQQRNLTHMQDEVNVKSHQREHQNIQDLEIENEDLKERLRKIQQEQRILLDKVNGLQLQLNEEVMVADDLESEREKLKSLLAAKEKQHEESLRTIEALKNRFKYFESDHLGSGSHFSNRKEDMLLKQGQMYMADSQCTSPGIPAHMQSRSMLRPLELSLPSQTSYSENEILKKELEAMRTFCESAKQDRLKLQNELAHKVAECKALALECERVKEDSDEQIKQLEDALKDVQKRMYESEGKVKQMQTHFLALKEHLTSEAASGNHRLTEELKDQLKDLKVKYEGASAEVGKLRNQIKQNEMIVEEFKRDEGKLIEENKRLQKELSMCEMEREKKGRKVTEMEGQAKELSAKLALSIPAEKFENMKSSLSNEVNEKAKKLVEMEREHEKSLSEIRQLKRELENVKAKLAQHVKPEEHEQVKSRLEQKSGELGKKITELTLKNQTLQKEIEKVYLDNKLLKEQAHNLTIEMKNHYVPLKVSEDMKKSHDAIIDDLNRKLLDVTQKYTEKKLEMEKLLLENDSLSKDVSRLETVFVPPEKHEKEIIALKSNIVELKKQLSELKKKCGEDQEKIHALTSENTNLKKMMSNQYVPVKTHEEVKMTLNDTLAKTNRELLDVKKKFEDINQEFVKIKDKNEILKRNLENTQNQIKAEYISLAEHEAKMSSLSQSMRKVQDSNAEILANYRKGQEEIVTLHAEIKAQKKELDTIQECIKVKYAPIVSFEECERKFKATEKELKDQLSEQTQKYSVSEEEVKKNKQENDKLKKEIFTLQKDLRDKTVLIEKSHEMERALSRKTDELNKQLKDLSQKYTEVKNVKEKLVEENAKQTSEILAVQNLLQKQHVPLEQVEALKKSLNGTIENLKEELKSMQRCYEKEQQTVTKLHQLLENQKNSSVPLAEHLQIKEAFEKEVGIIKASLREKEEESQNKMEEVSKLQSEVQNTKQALKKLETREVVDLSKYKATKSDLETQISSLNEKLANLNRKYEEVCEEVLHAKKKEISAKDEKELLHFSIEQEIKDQKERCDKSLTTITELQRRIQESAKQIEAKDNKITELLNDVERLKQALNGLSQLTYTSGNPTKRQSQLIDTLQHQVKSLEQQLADADRQHQEVIAIYRTHLLSAAQGHMDEDVQEALLQIIQMRQGLVC
With B5, the binding entry is “binds”.

B6: pre-rRNA processing protein FTSJ3 (protein, UniProt Q8IY81 1-847)
chain: MGKKGKVGKSRRDKFYHLAKETGYRSRSAFKLIQLNRRFQFLQKARALLDLCAAPGGWLQVAAKFMPVSSLIVGVDLVPIKPLPNVVTLQQDITTERCRQALRKELKTWKVDVVLNDGAPNVGASWVHDAYSQAHLTLMALRLACDFLARGGSFITKVFRSRDYQPLLWIFQQLFRRVQATKPQASRHESAEIFVVCQGFLAPDKVDSKFFDPKFAFKEVEVQAKTVTELVTKKKPKAEGYAEGDLTLYHRTSVTDFLRAANPVDFLSKASEIMVDDEELAQHPATTEDIRVCCQDIRVLGRKELRSLLNWRTKLRRYVAKKLKEQAKALDISLSSGEEDEGDEEDSTAGTTKQPSKEEEEEEEEEQLNQTLAEMKAQEVAELKRKKKKLLREQRKQRERVELKMDLPGVSIADEGETGMFSLSTIRGHQLLEEVTQGDMSAADTFLSDLPRDDIYVSDVEDDGDDTSLDSDLDPEELAGVRGHQGLRDQKRMRLTEVQDDKEEEEEENPLLVPLEEKAVLQEEQANLWFSKGSFAGIEDDADEALEISQAQLLFENRRKGRQQQQKQQLPQTPPSCLKTEIMSPLYQDEAPKGTEASSGTEAATGLEGEEKDGISDSDSSTSSEEEESWEPLRGKKRSRGPKSDDDGFEIVPIEDPAKHRILDPEGLALGAVIASSKKAKRDLIDNSFNRYTFNEDEGELPEWFVQEEKQHRIRQLPVGKKEVEHYRKRWREINARPIKKVAEAKARKKRRMLKRLEQTRKKAEAVVNTVDISEREKVAQLRSLYKKAGLGKEKRHVTYVVAKKGVGRKVRRPAGVRGHFKVVDSRMKKDQRAQQRKEQKKKHKRK
In the case of B6, the binding result is recorded as “binds”.

B7: 14-3-3 protein theta (protein, UniProt P27348 1-245)
chain: MEKTELIQKAKLAEQAERYDDMATCMKAVTEQGAELSNEERNLLSVAYKNVVGGRRSAWRVISSIEQKTDTSDKKLQLIKDYREKVESELRSICTTVLELLDKYLIANATNPESKVFYLKMKGDYFRYLAEVACGDDRKQTIDNSQGAYQEAFDISKKEMQPTHPIRLGLALNFSVFYYEILNNPELACTLAKTAFDEAIAELDTLNEDSYKDSTLIMQLLRDNLTLWTSDSAGEECDAAEGAEN
Regarding B7, the binding result is given as “binds”.

B8: Matrin-3 (protein, UniProt P43243 1-847)
chain: MSKSFQQSSLSRDSQGHGRDLSAAGIGLLAAATQSLSMPASLGRMNQGTARLASLMNLGMSSSLNQQGAHSALSSASTSSHNLQSIFNIGSRGPLPLSSQHRGDADQASNILASFGLSARDLDELSRYPEDKITPENLPQILLQLKRRRTEEGPTLSYGRDGRSATREPPYRVPRDDWEEKRHFRRDSFDDRGPSLNPVLDYDHGSRSQESGYYDRMDYEDDRLRDGERCRDDSFFGETSHNYHKFDSEYERMGRGPGPLQERSLFEKKRGAPPSSNIEDFHGLLPKGYPHLCSICDLPVHSNKEWSQHINGASHSRRCQLLLEIYPEWNPDNDTGHTMGDPFMLQQSTNPAPGILGPPPPSFHLGGPAVGPRGNLGAGNGNLQGPRHMQKGRVETSRVVHIMDFQRGKNLRYQLLQLVEPFGVISNHLILNKINEAFIEMATTEDAQAAVDYYTTTPALVFGKPVRVHLSQKYKRIKKPEGKPDQKFDQKQELGRVIHLSNLPHSGYSDSAVLKLAEPYGKIKNYILMRMKSQAFIEMETREDAMAMVDHCLKKALWFQGRCVKVDLSEKYKKLVLRIPNRGIDLLKKDKSRKRSYSPDGKESPSDKKSKTDGSQKTESSTEGKEQEEKSGEDGEKDTKDDQTEQEPNMLLESEDELLVDEEEAAALLESGSSVGDETDLANLGDVASDGKKEPSDKAVKKDGSASAAAKKKLKKVDKIEELDQENEAALENGIKNEENTEPGAESSENADDPNKDTSENADGQSDENKDDYTIPDEYRIGPYQPNVPVGIDYVIPKTGFYCKLCSLFYTNEEVAKNTHCSSLPHYQKLKKFLNKLAEERRQKKET
For B8, the binding result is “binds”.
